From the supplement of paper PMC6078165
Values are relative to the signal before dosing, not to a vehicle control; the signal also falls without drug.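 Labels refer to human fibroblasts, largely primary: uterine (C12385, HUF), lung (H6013), bone (Hs27A), adrenal (HADF), skin (WS1), plus mammary HMF and breast cancer-associated Hs343T. Cancer lines are basal-like or mesenchymal-like triple-negative breast cancer. The paper counts as hits responses shifting over 3x the replicate standard deviation. The tissue of the other fibroblasts is not given here.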

System: MDAMB436
Assay: relative JC-1 red fluorescence (viability) vs pre-drug, coculture with fibroblast (fraction); higher = more viable cancer cells
Description: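 JC-1 labelled TNBC cells cocultured 1:1 (1,500 cells each) with CellTrace Violet stained primary or stromal fibroblasts in 384-well plates in FluoroBrite medium, treated with one of 42 anticancer drugs at 0.1, 1, 10 or 100 uM. JC-1 red fluorescence (mitochondrial integrity in cancer cells only) was read by plate reader every 8 h for 72 h. Values are normalised to each well's pre-drug value. The stock of one drug was tenfold lower, so its dose labels may be too high.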

O=NN(CCCl)C(=O)NCCCl [Carmustine]
relative JC-1 red fluorescence
Settings	8 h	16 h	24 h	32 h	40 h	48 h	56 h	64 h	72 h
0.1 µM, coculture fibroblast: C12385	0.804	0.693	0.654	0.577	0.526	0.503	0.478	0.464	0.463
0.1 µM, coculture fibroblast: H6013	0.827	0.722	0.665	0.634	0.5894	0.59	0.55	0.525	0.481
0.1 µM, coculture fibroblast: H6019	0.7524	0.6432	0.648	0.585	0.549	0.536	0.501	0.477	0.449
0.1 µM, coculture fibroblast: H6076	0.7889	0.691	0.66	0.618	0.596	0.568	0.562	0.564	0.548
0.1 µM, coculture fibroblast: H6231	0.8	0.697	0.644	0.563	0.525	0.487	0.463	0.43	0.398
0.1 µM, coculture fibroblast: HADF	0.843	0.786	0.701	0.668	0.632	0.634	0.586	0.566	0.524
0.1 µM, coculture fibroblast: HCFa	0.803	0.709	0.648	0.618	0.571	0.57	0.506	0.4908	0.4347
0.1 µM, coculture fibroblast: HCPF	0.779	0.69	0.638	0.59	0.561	0.526	0.5	0.48	0.463
0.1 µM, coculture fibroblast: HHSteC	0.834	0.778	0.708	0.675	0.642	0.647	0.583	0.554	0.494
0.1 µM, coculture fibroblast: HMF	0.796	0.703	0.636	0.596	0.576	0.539	0.538	0.524	0.504
0.1 µM, coculture fibroblast: HPFa	0.871	0.81	0.759	0.708	0.675	0.659	0.573	0.531	0.442
0.1 µM, coculture fibroblast: HUF	0.842	0.735	0.703	0.626	0.568	0.536	0.503	0.484	0.478
0.1 µM, coculture fibroblast: Hs5	0.792	0.735	0.712	0.663	0.647	0.612	0.612	0.57	0.551
0.1 µM, coculture fibroblast: Hs27A	0.7603	0.684	0.6445	0.6132	0.592	0.638	0.551	0.53057	0.4634
0.1 µM, coculture fibroblast: Hs343T	0.76	0.672	0.601	0.568	0.539	0.509	0.499	0.481	0.476
0.1 µM, coculture fibroblast: WS1	0.778	0.688	0.63	0.552	0.5	0.477	0.451	0.42	0.403
1 µM, coculture fibroblast: C12385	0.768	0.708	0.68	0.597	0.554	0.525	0.507	0.495	0.487
1 µM, coculture fibroblast: H6013	0.799	0.7331	0.709	0.695	0.689	0.717	0.674	0.661	0.616
1 µM, coculture fibroblast: H6019	0.741	0.719	0.736	0.674	0.652	0.644	0.609	0.583	0.551
1 µM, coculture fibroblast: H6076	0.816	0.741	0.707	0.653	0.61	0.579	0.57	0.559	0.545
1 µM, coculture fibroblast: H6231	0.693	0.615	0.665	0.579	0.563	0.5419	0.5313	0.516	0.488
1 µM, coculture fibroblast: HADF	0.865	0.774	0.764	0.748	0.746	0.786	0.73	0.736	0.693
1 µM, coculture fibroblast: HCFa	0.794	0.699	0.662	0.628	0.599	0.617	0.554	0.547	0.482
1 µM, coculture fibroblast: HCPF	0.732	0.683	0.6663	0.614	0.589	0.555	0.55	0.533	0.516
1 µM, coculture fibroblast: HHSteC	0.78	0.733	0.701	0.66	0.652	0.67	0.614	0.59	0.541
1 µM, coculture fibroblast: HMF	0.727	0.654	0.648	0.60681	0.585	0.562	0.569	0.554	0.546
1 µM, coculture fibroblast: HPFa	0.8901	0.828	0.797	0.746	0.721	0.722	0.628	0.593	0.502
1 µM, coculture fibroblast: HUF	0.7943	0.717	0.693	0.6166	0.5698	0.54529	0.521	0.5052	0.496
1 µM, coculture fibroblast: Hs5	0.798	0.751	0.73409	0.6764	0.651	0.61	0.611	0.587	0.568
1 µM, coculture fibroblast: Hs27A	0.78	0.693	0.671	0.646	0.627	0.694	0.588	0.574	0.496
1 µM, coculture fibroblast: Hs343T	0.699	0.629	0.601	0.56	0.527	0.494	0.49	0.487	0.4804
1 µM, coculture fibroblast: WS1	0.7479	0.689	0.6682	0.5945	0.5561	0.5342	0.5183	0.4937	0.4803
10 µM, coculture fibroblast: C12385	0.826	0.7219	0.659	0.573	0.517	0.484	0.46	0.437	0.428
10 µM, coculture fibroblast: H6013	0.872	0.81	0.791	0.79	0.774	0.773	0.751	0.723	0.678
10 µM, coculture fibroblast: H6019	0.7651	0.653	0.633	0.56	0.513	0.498	0.464	0.432	0.405
10 µM, coculture fibroblast: H6076	0.826	0.721	0.628	0.568	0.532	0.5	0.49	0.476	0.469
10 µM, coculture fibroblast: H6231	0.751	0.643	0.547	0.488	0.444	0.413	0.3881	0.367	0.3464
10 µM, coculture fibroblast: HADF	0.8043	0.696	0.65	0.599	0.552	0.549	0.498	0.478	0.431
10 µM, coculture fibroblast: HCFa	0.782	0.6906	0.639	0.594	0.563	0.56	0.497	0.485	0.435
10 µM, coculture fibroblast: HCPF	0.787	0.702	0.609	0.551	0.509	0.464	0.425	0.407	0.388
10 µM, coculture fibroblast: HHSteC	0.836	0.776	0.729	0.685	0.659	0.664	0.605	0.572	0.516
10 µM, coculture fibroblast: HMF	0.794	0.715	0.59	0.55	0.525	0.505	0.499	0.482	0.481
10 µM, coculture fibroblast: HPFa	0.84484	0.7757	0.709	0.651	0.605	0.605	0.526	0.482	0.398
10 µM, coculture fibroblast: HUF	0.861	0.763	0.719	0.636	0.58	0.545	0.511	0.497	0.482
10 µM, coculture fibroblast: Hs5	0.797	0.741	0.649	0.589	0.561	0.519	0.509	0.465	0.444
10 µM, coculture fibroblast: Hs27A	0.7762	0.6995	0.675	0.643	0.612	0.658	0.567	0.537	0.472
10 µM, coculture fibroblast: Hs343T	0.807	0.717	0.585	0.527	0.479	0.443	0.413	0.399	0.394
10 µM, coculture fibroblast: WS1	0.815	0.728	0.676	0.591	0.544	0.515	0.49	0.456	0.437
100 µM, coculture fibroblast: C12385	0.786	0.754	0.761	0.693	0.6596	0.6415	0.631	0.624	0.621
100 µM, coculture fibroblast: H6013	0.813	0.788	0.793	0.797	0.812	0.851	0.8292	0.8233	0.779
100 µM, coculture fibroblast: H6019	0.768	0.7182	0.7046	0.6352	0.6081	0.5924	0.5658	0.5339	0.5044
100 µM, coculture fibroblast: H6076	0.683	0.61	0.605	0.572	0.562	0.547	0.573	0.5885	0.597
100 µM, coculture fibroblast: H6231	0.646	0.585	0.608	0.539	0.518	0.504	0.498	0.496	0.48
100 µM, coculture fibroblast: HADF	0.81	0.799	0.788	0.766	0.781	0.825	0.777	0.781	0.75
100 µM, coculture fibroblast: HCFa	0.813	0.797	0.782	0.752	0.745	0.767	0.714	0.714	0.672
100 µM, coculture fibroblast: HCPF	0.6446	0.596	0.609	0.558	0.544	0.518	0.527	0.528	0.518
100 µM, coculture fibroblast: HHSteC	0.8264	0.809	0.796	0.7644	0.76198	0.7831	0.7366	0.7248	0.68
100 µM, coculture fibroblast: HMF	0.665	0.577	0.559	0.521	0.503	0.482	0.486	0.4972	0.5013
100 µM, coculture fibroblast: HPFa	0.867	0.86	0.841	0.802	0.807	0.833	0.755	0.727	0.662
100 µM, coculture fibroblast: HUF	0.8082	0.746	0.727	0.657	0.613	0.598	0.587	0.583	0.588
100 µM, coculture fibroblast: Hs5	0.69	0.651	0.655	0.611	0.616	0.587	0.617	0.605	0.597
100 µM, coculture fibroblast: Hs27A	0.7942	0.789	0.787	0.77	0.755	0.838	0.742	0.74	0.674
100 µM, coculture fibroblast: Hs343T	0.683	0.614	0.581	0.537	0.512	0.491	0.497	0.5	0.508
100 µM, coculture fibroblast: WS1	0.769	0.732	0.73	0.6487	0.6222	0.5997	0.5856	0.563	0.549
